Results deposited as PubChem BioAssay AID743454 (Peter MacCallum Cancer Centre, 2014)

Aim: 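Knock-downs lowering viability or raising caspase 3/7 activity in vorinostat-treated resistant cells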 (primary screen)
Cell system: human HCT116-VR colon cancer cells, selected for vorinostat resistance
Reagents: siRNA pool against human genes, 40 nM siRNA pool
Timing: vorinostat for 24 h, read-out about 72 h after transfection
Conditions: vorinostat at 2.5 µM final
Measurement: 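Two measures, CellTiter-Fluor viability and luminescent caspase 3/7 activity, each as fold change against same-plate mock wells, mean of duplicates, then screen-wide robust z-score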
Scale: viability robust z-score: higher = more viable cells than screen typical; caspase robust z-score: higher = more caspase 3/7 activity than screen typical
Active means: 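a knock-down is a hit when classed RV1 or RV2 for lowered viability, or CA1 or CA2 for caspase activation; those lethal without drug were dropped; hits were retested singly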
This is an unselected part of about 18,000 deposited reagents. 450 of all reagents (2.5%) count as active. 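Single biological run; no consistent viability z cut-off exists, so the class columns, not z-scores, define the calls.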 Reagent sequences are not shown.

FGF16 gave viability hit class no change; caspase hit class no change; viability robust z-score 1.45; caspase robust z-score 0.3; inactive.
Silencing of PAK2 resulted in: viability hit class no change; caspase hit class no change; viability robust z-score 2; caspase robust z-score -0.28; inactive.
Depletion of FOXA2 resulted in: viability hit class no change; caspase hit class no change; viability robust z-score -1.19; caspase robust z-score -0.23; inactive.
With knock-down of PDZD11 the results were viability hit class no change; caspase hit class no change; viability robust z-score -0.03; caspase robust z-score 2.67; inactive.
Silencing of ACP3 resulted in: viability hit class no change; caspase hit class no change; viability robust z-score 0.72; caspase robust z-score 0.87; inactive.
After knock-down of RRAGC, the record shows viability hit class no change; caspase hit class no change; viability robust z-score -0.69; caspase robust z-score 0.32; inactive.
For SPARC, the values are viability hit class no change; caspase hit class no change; viability robust z-score 1.09; caspase robust z-score -0.76; inactive.
With knock-down of THOC3, the screen gave viability hit class no change; caspase hit class no change; viability robust z-score -0.42; caspase robust z-score 0.86; inactive.
With knock-down of HEXB, the record shows viability hit class no change; caspase hit class no change; viability robust z-score 0.8; caspase robust z-score 0.46; inactive.
Knock-down of OR52N2 came out at: viability hit class no change; caspase hit class no change; viability robust z-score 0.04; caspase robust z-score 0.64; inactive.
With knock-down of CXCL5 the results were viability hit class no change; caspase hit class no change; viability robust z-score -0.92; caspase robust z-score -0.8; inactive.
For RFWD3, the entry reads viability hit class no change; caspase hit class no change; viability robust z-score -2.79; caspase robust z-score 2.77; inactive.

2 consecutive entries from above, for reference:
THOC3 → viability hit class = no change; caspase hit class = no change; viability robust z-score = -0.42; caspase robust z-score = 0.86; Call = inactive
HEXB → viability hit class = no change; caspase hit class = no change; viability robust z-score = 0.8; caspase robust z-score = 0.46; Call = inactive
